These are raw signals, not scaled to a control.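 For antimicrobials the highest concentration approximated the MIC. Most other compounds topped out at 500 µM, and known inducer-like compounds reached up to 1 mM. Inocula for deletion strains were tenfold smaller, and any well growing below 10% of the overall median was considered non-growing.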
System: Escherichia coli BW25113
Experiment: growth (OD600 area under curve, 8 h) (OD600 x h); higher = more growth
Protocol: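 E. coli BW25113 reporter strains (wild type, ΔmarA, ΔsoxS, Δrob, each carrying one of 8 lux reporter plasmids) were grown in 40 µl LB in 384-well plates at 37°C, 800 rpm, with each compound at 4 two-fold concentrations, in biological duplicates. Growth is the baseline-corrected OD600 area under the curve over 8 h (0-8 h WT, 1-9 h deletion strains).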

CCC[C@@H]1C[C@@H](C(=O)N[C@@H]([C@H]2O[C@H](SC)[C@H](O)[C@@H](O)[C@H]2O)[C@H](C)Cl)N(C)C1 [Clindamycin]
growth
Conditions	reporter plasmid: EVC	reporter plasmid: acrABp	reporter plasmid: marRABp	reporter plasmid: micFp	reporter plasmid: ompFp	reporter plasmid: robp	reporter plasmid: soxSp	reporter plasmid: tolCp
0.26 µg/ml, genetic background: wild type	2.711	2.65	3.18	3.26	2.98	3.28	3.19	3.164
0.26 µg/ml, genetic background: ΔmarA	3.38	4.32	3.81	3.21	3.57	3.79	3.01	2.93
0.26 µg/ml, genetic background: Δrob	3.15	2.88	3.35	3.15	2.86	2.87	3.08	3.18
0.26 µg/ml, genetic background: ΔsoxS	3.23	3.05	3.27	3.01	3.41	3.29	3.18	3.25
0.52 µg/ml, genetic background: wild type	2.6	2.71	3.39	3.15	3.03	3.301	2.97	2.89
0.52 µg/ml, genetic background: ΔmarA	3.12	4.25	3.78	3.12	3.57	3.85	2.78	2.91
0.52 µg/ml, genetic background: Δrob	2.76	2.9	3.39	3.01	2.27	2.67	2.77	2.84
0.52 µg/ml, genetic background: ΔsoxS	2.83	2.87	3.1	2.62	3.19	3.17	3.07	2.91
1 µg/ml, genetic background: wild type	2.82	2.79	3.06	3.19	2.99	3.2	2.97	3.1
1 µg/ml, genetic background: ΔmarA	3.34	4.12	3.95	3.13	3.47	3.83	2.96	2.89
1 µg/ml, genetic background: Δrob	3.12	2.8	3.23	3	2.74	2.78	2.94	2.99
1 µg/ml, genetic background: ΔsoxS	3.18	2.9	2.96	2.75	3.4	3.39	3.15	3.229
2.1 µg/ml, genetic background: wild type	2.47	2.54	3.19	2.878	2.68	2.99	2.82	2.88
2.1 µg/ml, genetic background: ΔmarA	3.11	3.76	3.29	2.87	3.15	3.45	2.52	2.55
2.1 µg/ml, genetic background: Δrob	2.78	2.6	3.18	2.57	2.4	2.33	2.53	2.74
2.1 µg/ml, genetic background: ΔsoxS	2.78	2.52	2.6	2.22	2.48	2.68	2.57	2.68

COc1cc(/C=C/C(=O)CC(=O)/C=C/c2ccc(O)c(OC)c2)ccc1O [Curcumin]
growth
Conditions	reporter plasmid: EVC	reporter plasmid: acrABp	reporter plasmid: marRABp	reporter plasmid: micFp	reporter plasmid: ompFp	reporter plasmid: robp	reporter plasmid: soxSp	reporter plasmid: tolCp
23 µg/ml, genetic background: wild type	2.8	3.08	2.84	3.26	3.2	3.19	3.11	3.27
23 µg/ml, genetic background: ΔmarA	3.42	3.439	3.47	3.36	3.67	4.13	2.91	3.16
23 µg/ml, genetic background: Δrob	2.98	2.57	3.09	3.21	2.45	2.58	3.03	3.06
23 µg/ml, genetic background: ΔsoxS	3.26	2.69	2.81	2.92	3.34	2.86	2.77	2.97
46 µg/ml, genetic background: wild type	2.67	2.4	3.0567	3.18	2.74	3.03	3.19	3.19
46 µg/ml, genetic background: ΔmarA	3.31	3.34	2.89	3	3.08	3.65	2.93	2.96
46 µg/ml, genetic background: Δrob	2.97	2.51	3.22	3.13	2.3	2.44	2.98	3.13
46 µg/ml, genetic background: ΔsoxS	3.213	2.84	2.86	2.94	2.97	2.96	2.88	2.824
92.1 µg/ml, genetic background: wild type	2.68	2.3	2.32	3.042	2.81	2.726	3	3.07
92.1 µg/ml, genetic background: ΔmarA	3.17	3.41	2.22	3.2	3.15	3.71	2.96	2.98
92.1 µg/ml, genetic background: Δrob	3.02	1.88	2.77	3.04	1.85	1.95	2.95	3.04
92.1 µg/ml, genetic background: ΔsoxS	3.2117	2.76	2.78	2.98	2.93	3.07	2.65	3.01
184.2 µg/ml, genetic background: wild type	2.604	2.07	2.41	3.09	2.36	2.97	2.999	2.9
184.2 µg/ml, genetic background: ΔmarA	3.29	2.68	3.18	2.94	3.1	3.71	2.8	2.94
184.2 µg/ml, genetic background: Δrob	2.97	1.7	2.35	3.03	2.24	1.76	2.77	2.95
184.2 µg/ml, genetic background: ΔsoxS	3.239	2.66	2.55	2.86	2.93	2.42	2.59	2.92

COc1ccc(C[C@H](N)C(=O)N[C@H]2[C@@H](O)[C@H](n3cnc4c(N(C)C)ncnc43)O[C@@H]2CO)cc1 [Puromycin]
growth
Conditions	reporter plasmid: EVC	reporter plasmid: acrABp	reporter plasmid: marRABp	reporter plasmid: micFp	reporter plasmid: ompFp	reporter plasmid: robp	reporter plasmid: soxSp	reporter plasmid: tolCp
3.1 µg/ml, genetic background: wild type	3.05	3.32	3.29	3.21	3.01	3.237	3.17	3.19
3.1 µg/ml, genetic background: ΔmarA	3.12	4.03	3.47	3.27	3.5	3.74	2.97	2.73
3.1 µg/ml, genetic background: Δrob	3.31	3.01	3.32	2.97	2.5	2.76	3.034	3.25
3.1 µg/ml, genetic background: ΔsoxS	3.28	3.23	3.1	3.14	3.04	3.32	2.79	3.23
6.1 µg/ml, genetic background: wild type	2.89	3.24	3.2	3.02	2.92	2.93	2.89	3.07
6.1 µg/ml, genetic background: ΔmarA	2.93	3.75	3.29	3.06	3.26	3.39	2.88	2.72
6.1 µg/ml, genetic background: Δrob	2.95	2.44	3.19	2.86	2.4	2.55	2.88	3.18
6.1 µg/ml, genetic background: ΔsoxS	3.17	2.98	2.88	2.86	2.97	3.03	2.942	3.21
12.2 µg/ml, genetic background: wild type	2.85	3.31	3.23	2.92	3.17	2.97	3.1	3.062
12.2 µg/ml, genetic background: ΔmarA	2.68	3.66	2.98	3.07	3.26	3.62	2.93	2.44
12.2 µg/ml, genetic background: Δrob	2.74	2.81	3.11	2.77	2.33	2.65	3.06	3.01
12.2 µg/ml, genetic background: ΔsoxS	3.17	3.072	3.05	2.74	2.87	3.28	2.93	3.13
24.5 µg/ml, genetic background: wild type	2.22	0.641	1.6	1.34	0.339	0.646	2.53	2.2
24.5 µg/ml, genetic background: ΔmarA	0.52	-0.12	-0.0591	0.501	-0.0215	0.703	2.25	0.35
24.5 µg/ml, genetic background: Δrob	1.54	0.266	0.359	0.694	-0.0588	0.0268	2.4	1.81
24.5 µg/ml, genetic background: ΔsoxS	2.21	0.181	0.0924	0.884	-0.0137	-0.00984	1.06	2.31
